Out of some 320,000 compounds screened, about 2,100 (0.66%) were called active. The shares of active, inactive and inconclusive entries below differ from those in the screen. The call rests on the fitted dose curve; in most records, active means well fitted inhibition curve with a large enough effect in the signal ratio, with a control signal flat (not every such curve was filed as active); inconclusive means small, poorly fitted or top-dose-only effect, or effect the other way, or a change in a side signal; inactive means flat fitted curve, though single readings scatter; the % refers to the signal ratio. Potencies of inconclusive entries are doubtful fits and often do not repeat.
Experiment: qHTS Assay for Lipid Storage Modulators in Drosophila S3 Cells
Settings: BODIPY lipid droplet fluorescence, 18-24 h, cells fed with added oleic acid; lipid storage change, negative = inhibition: at 46.1 µM (top of the series) unless noted
Summary of the method: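 Laser-scanning cytometry quantifies lipid droplet accumulation (500–530 nm total intensity; droplet/cell object ratio) in oleic acid-fed (400 uM added) Drosophila S3 cells treated with a concentration series. 20 uM Triacsin C defined 100% inhibition.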
On the % scale 0 is the no-effect control and ±100 the full control effect; potency means the concentration at half of the fitted maximal effect.

| Compound | lipid storage change, negative = inhibition | Potency |
| --- | --- | --- |
| CSc1cccc(NC(=O)C2C3C=CC4(O3)C2C(=O)N(CCCN2CCOCC2)C4C(=O)NC2CCCCC2)c1 (centres undefined) | inconclusive: 21.2% |  |
| Cc1ccc(-c2nc3ccccc3o2)cc1NC(=S)NC(=O)/C=C/c1ccco1 |  | inconclusive: 6.51 µM [falling, partial curve] |
| CCOC(=O)c1cc(NC(=O)c2cnccn2)cc(C(=O)OCC)c1 | inconclusive: 93.2% |  |
| COc1ccccc1C(=O)N(Cc1ccco1)C1CCS(=O)(=O)C1 (centres undefined) | inconclusive: -18.2% |  |
| COC(=O)C(Cc1ccccc1)NC(=O)CNC(=O)c1ccc(Br)o1 (centres undefined) | inconclusive: 0.654% |  |
| O=C(O)/C=C/C(=O)Nc1ccc(-n2nccc2C(F)(F)F)cc1 | inconclusive: 16.4% |  |
| S=C(Nc1cccc(Cl)c1Cl)N1CCCC1 | inconclusive: -9.9% |  |
| CCCCCc1c2c(cc(O)c1C(=O)O)OC(=O)c1c(cc(OC)cc1C(=O)CCCC)O2 | inconclusive: -23.7% |  |
| Cc1c[nH]c(=O)c([N+](=O)[O-])c1 | inconclusive: 15.4% |  |
| Cc1ccc(OCC(=O)N(Cc2ccc(C)o2)C2CCS(=O)(=O)C2)cc1 (centres undefined) | inconclusive: 0.984% |  |
| Cc1c(C(=O)NCc2c(F)cc(F)cc2F)oc2ccc(S(=O)(=O)N3CCOCC3)cc12 |  | active: 2.91 µM |
| COc1ccc(COC(=O)C2=C(C)NC(=O)NC2c2ccc(O)c(OC)c2)cc1 (centres undefined) | inconclusive: -0.45% [at 9.22 µM] |  |
| Cc1sc2ncnc(OCC(=O)NC(C)C(C)C)c2c1C (centres undefined) | inconclusive: 8.79% |  |
| Cc1ccc(CNS(=O)(=O)c2cc3c(cc2C)NC(=O)CO3)cc1 | inconclusive: 6.23% |  |
| O=C1CCCC/C1=C\Nc1ccc(C(=O)O)c(O)c1 | inconclusive: 16.2% |  |
| CC1CCN(CC(=O)NCc2ccccc2)CC1 |  | inconclusive: 29.1 µM [falling, single point] |
| CC(C)(C)n1nc2c(c1NC(=O)c1cccc(C(F)(F)F)c1)CS(=O)C2 (centres undefined) | inconclusive: -0.456% |  |
| Cc1ccccc1NC(=O)COC(=O)CCc1c[nH]c2ccccc12 |  | inconclusive: 0.411 µM [activator, full curve, poor fit] |
| Cc1cccc(OCc2nnc(SCC(=O)Nc3cccc(C(=O)N4CCOCC4)c3)n2C)c1C | inconclusive: -17.9% |  |
| CCOC(=O)C1CCCN(C(=O)Cn2nc(CC)n3c(cc4sccc43)c2=O)C1 (centres undefined) | inconclusive: 23.4% [at 9.22 µM] |  |
| COc1cc(C2Nc3ccc4ccccc4c3C3=C2C(=O)CC(C)(C)C3)ccc1OCC(=O)O (centres undefined) | inconclusive: 38% |  |
| NCCCC[C@@H](C(=O)NCCCCCCCCCCC(=O)N1CCNCC1)n1cc(CCCC(=O)O)nn1 | inconclusive: 2.12% |  |
| CCOC(=O)C1CCCN(S(=O)(=O)Cc2ccccc2)C1 (centres undefined) | inconclusive: 16.1% |  |
| C[C@@]12C(=O)N(Cc3ccccc3)CC(=O)N1[C@H]1c3cc(Cl)ccc3OC[C@@H]1[C@@H]2c1ccccc1 |  | inconclusive: 6.51 µM [activator, single point] |
| CCCS(=O)(=O)N1CCN(CCN2C(=O)c3cccc4cccc(c34)C2=O)CC1 | inconclusive: 42.3% |  |

| Compound | lipid storage change, negative = inhibition | Potency |
| --- | --- | --- |
| O=C(CN1CCN(CN2C(=O)NC3(CCCCCC3)C2=O)CC1)Nc1cccc(F)c1 | inconclusive: 4.08% |  |
| Cc1ccc(NC(=O)CN2C(=O)NC(Cc3c[nH]c4ccccc34)C2=O)cc1S(=O)(=O)N1CCCCC1 (centres undefined) | inconclusive: 13.5% |  |
| Cc1ccc(C)c(N2CCN(C(=O)c3csc(C)c3C)CC2)c1 | inconclusive: 12% |  |
| COc1ccc(-c2noc(CCC(=O)NCCCN3CCC(C)CC3)n2)cc1 | inconclusive: -29.8% |  |
| O=C1C(O)CC2c3ccccc3CC3(CCCC3)N12 (centres undefined) | inconclusive: -7.91% |  |
| COc1c(Cl)ccc(Cl)c1C(=O)OCC(=O)O | inconclusive: 9.51% |  |
| O=C(Nc1ccc(OC(F)F)cc1)c1cc(S(=O)(=O)N2CCOCC2)ccc1F | inconclusive: 3.59% |  |
| CCCCn1c2ccc(F)cc2c2nnc(NN)nc21 | inconclusive: 18.3% |  |
| Cn1c(C(=O)N2CCCC2)cc2c(=O)n(C)c3ccccc3c21 | inconclusive: -2.08% |  |
| O=c1[nH]c2cc3c(cc2cc1CN(Cc1cccs1)Cc1nnnn1Cc1ccco1)OCCO3 |  | inconclusive: 0.0046 µM [activator, full curve, poor fit] |
| CN(C(=O)CSc1cn(CC(=O)N2CCOCC2)c2ccccc12)c1ccccc1 |  | inconclusive: 0.651 µM [falling, full curve] |
| Cc1ccc(C)c(CN2C(=O)C3CCCN3c3ccc(S(=O)(=O)N4CCOCC4)cc32)c1 (centres undefined) | inconclusive: -14.9% |  |
| Nc1nc(NCCOCCO)nc(NCC2CCCO2)c1[N+](=O)[O-] (centres undefined) | inconclusive: -6.16% |  |
| COc1ccc(OCC(=O)N2CCCC(CO)(CCOc3ccccc3)C2)cc1 (centres undefined) |  | inconclusive: 6.51 µM [activator, single point] |
| CC(=O)Oc1ccc(C(=O)[C@H]2[C@H]3C(=O)N(c4ccccc4)C(=O)[C@H]3[C@@H]3C=CC=NN32)cc1 | inconclusive: -28.5% |  |
| COc1ccc(NC(=O)C(NS(=O)(=O)c2cccs2)C(C)C)cc1Cl (centres undefined) | inconclusive: -24.3% |  |
| COc1ccc(C(=O)OCC2CC(c3ccccc3)N(C)O2)cc1 (centres undefined) | inconclusive: -3.96% |  |
| COc1ccccc1/C=C/C(=O)OCC(=O)NCCC1=CCCCC1 | inconclusive: 7.29% |  |
| CCOC(=O)[C@H]1[C@H]2COc3ccc(OC)cc3[C@@H]2N2C(=O)c3cc(OC)c(OC)cc3NC(=O)[C@@]12C | inconclusive: 3.52% |  |
| O=C(CN1C(=O)NC2(CCCc3ccccc32)C1=O)NCc1ccco1 (centres undefined) | inconclusive: 1.42% |  |
| O=C1C2C(C(=O)N1/N=C/c1cc([N+](=O)[O-])c(O)cc1O)C1C=CC2C12CC2 (centres undefined) |  | inconclusive: 0.092 µM [falling, full curve] |
| CN(Cc1ccccc1)C(=O)c1[nH]cnc1C(=O)Nc1ccon1 | inconclusive: 13.8% |  |
| Cc1ccc(OCC(=O)NC2CC(C)(C)NC(C)(C)C2)cc1C | inconclusive: -2.26% |  |
| CC(C)(C)OC(=O)NCCCCCc1nnc(SCC(N)=O)o1 | inconclusive: 27.2% |  |

3 entries from above, sorted by length of the SMILES, rising.

| Compound | lipid storage change, negative = inhibition | Potency |
| --- | --- | --- |
| COc1ccc(-c2noc(CCC(=O)NCCCN3CCC(C)CC3)n2)cc1 | inconclusive: -29.8% |  |
| Cc1c(C(=O)NCc2c(F)cc(F)cc2F)oc2ccc(S(=O)(=O)N3CCOCC3)cc12 |  | active: 2.91 µM |
| O=C1C2C(C(=O)N1/N=C/c1cc([N+](=O)[O-])c(O)cc1O)C1C=CC2C12CC2 (centres undefined) |  | inconclusive: 0.092 µM [falling, full curve] |
